Source: ChEMBL document CHEMBL1135802, “Pyrrolo[1,3]benzothiazepine-based atypical antipsychotic agents. Synthesis, structure-activity relationship, molecular modeling, and biological studies” (J Med Chem, 2002)

Assays:
Mus musculus [1] = species: Mus musculus; test: animal or person; conditions: sc
Rattus norvegicus [2] = species: Rattus norvegicus; conditions: in vivo
Rattus norvegicus [3] = species: Rattus norvegicus; conditions: in vivo; remark: listed apart in the source
Rattus norvegicus [4] = species: Rattus norvegicus; conditions: in vivo; remark: listed apart in the source
Rattus norvegicus [5] = species: Rattus norvegicus; conditions: in vivo; remark: listed apart in the source
Rattus norvegicus [6] = species: Rattus norvegicus; conditions: in vivo; remark: listed apart in the source
Rattus norvegicus [7] = species: Rattus norvegicus; conditions: in vivo; remark: listed apart in the source
Mus musculus [8] = species: Mus musculus; test: animal or person; conditions: po
Rattus norvegicus [9] = species: Rattus norvegicus; conditions: in vivo; remark: listed apart in the source
Mus musculus [10] = species: Mus musculus; test: animal or person; conditions: sc; remark: listed apart in the source
Rattus norvegicus [11] = species: Rattus norvegicus; conditions: in vivo; remark: listed apart in the source
Rattus norvegicus [12] = species: Rattus norvegicus; conditions: in vivo; remark: listed apart in the source
Mus musculus [13] = species: Mus musculus; test: animal or person; conditions: po; remark: listed apart in the source

Molecule `Cc1cc2c(s1)Nc1ccccc1N=C2N1CCN(C)CC1` [OLANZAPINE] has an ED50 at […] (Mus musculus [1]) of 0.58 µmol/kg, an AUC (Rattus norvegicus [2]) of 20.73 and an AUC (Rattus norvegicus [3]) of 220.8. For the same molecule, the AUC (Rattus norvegicus [4]) was 113.1, the AUC (Rattus norvegicus [5]) was 2.8 and the AUC (Rattus norvegicus [6]) was 1825. For the same molecule, the AUC (Rattus norvegicus [7]) was 184.7, the ED50 at […] (Mus musculus [8]) was 4.65 µmol/kg and the AUC (Rattus norvegicus [9]) was 143.7. The ED50 at […] (Mus musculus [10]) was 0.38 µmol/kg, the AUC (Rattus norvegicus [11]) was 128.4 and the AUC (Rattus norvegicus [12]) was 157.7. For the same molecule, the ED50 at 21.2 mg/kg (Mus musculus [13]) was 67.9 µmol/kg.
